Data reported in patent US20220119509A1 (ARGENX, published 2022).
No constants are given. Whether binding was seen depends on the method and setting. Some results given as binding are weak or reduced against the parent protein; the word gives no strength.

Target: T1, cynomolgus monkey C2 (cynomolgus monkey) (UniProt G8F3W0)
T1 sequence: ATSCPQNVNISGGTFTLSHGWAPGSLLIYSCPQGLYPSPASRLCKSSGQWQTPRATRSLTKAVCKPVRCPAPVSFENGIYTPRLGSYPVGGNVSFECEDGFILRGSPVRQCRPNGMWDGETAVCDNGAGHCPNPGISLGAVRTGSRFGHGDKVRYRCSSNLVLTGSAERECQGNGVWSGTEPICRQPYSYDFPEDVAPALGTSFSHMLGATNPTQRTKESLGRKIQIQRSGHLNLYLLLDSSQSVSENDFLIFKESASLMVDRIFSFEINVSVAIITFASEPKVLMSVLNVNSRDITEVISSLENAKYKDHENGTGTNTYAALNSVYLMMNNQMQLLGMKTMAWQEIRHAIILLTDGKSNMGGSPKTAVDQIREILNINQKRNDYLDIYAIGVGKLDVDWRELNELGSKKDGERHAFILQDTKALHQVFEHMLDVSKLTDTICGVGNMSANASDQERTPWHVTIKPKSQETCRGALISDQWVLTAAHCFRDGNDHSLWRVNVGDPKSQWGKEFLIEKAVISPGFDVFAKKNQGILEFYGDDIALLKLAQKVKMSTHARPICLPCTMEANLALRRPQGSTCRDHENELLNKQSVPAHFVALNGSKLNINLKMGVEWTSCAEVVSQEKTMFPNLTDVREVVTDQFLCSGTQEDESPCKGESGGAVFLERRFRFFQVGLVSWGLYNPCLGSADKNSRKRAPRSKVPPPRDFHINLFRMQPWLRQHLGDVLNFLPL
Test: free-C2 sandwich ELISA on pre-dose cynomolgus serum: coat mAb32, detection with biotinylated anti-C2 VH4/VK3; excess BRO-2 competes with the detection antibody

B1: BRO2 (antibody, V domains shown)
VH: EVQLVQSGAEVKKPGASVKVSCKASGYTFTDYNMDWVRQATGQGLEWIGDINPNYESTGYNQKFKGRATMTVNKSISTAYMELSSLRSEDTAVYYCAREDDHDAFAYWGQGTLVTVSS
VL: DNVLTQSPDSLAVSLGERATISCRASKSVRTSGYNYMHWYQQKPGQPPKLLIYLASNLKSGVPDRFSGSGSGTDFTLTISSLQAEDAATYYCQHSRELPYTFGQGTKLEIK
binding: binds
